{"source": "paper PMC6829319", "about": "“Combination of SAXS and Protein Painting Discloses the Three-Dimensional Organization of the Bacterial Cysteine Synthase Complex, a Potential Target for Enhancers of Antibiotic Action” (International Journal of Molecular Sciences, 2019)", "target": "T1, O-acetylserine sulfhydrylase isozyme A (CysK) from E. coli (E. coli) (UniProt P0ABK5)", "T1 sequence": "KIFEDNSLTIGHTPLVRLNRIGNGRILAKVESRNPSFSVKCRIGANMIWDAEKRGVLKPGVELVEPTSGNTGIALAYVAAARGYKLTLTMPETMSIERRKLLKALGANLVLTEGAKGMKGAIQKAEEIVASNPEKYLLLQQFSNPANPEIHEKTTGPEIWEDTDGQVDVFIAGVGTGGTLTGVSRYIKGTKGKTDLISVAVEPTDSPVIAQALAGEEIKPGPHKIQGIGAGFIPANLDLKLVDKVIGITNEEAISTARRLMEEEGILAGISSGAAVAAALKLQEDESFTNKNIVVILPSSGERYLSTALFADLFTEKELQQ", "experiment": "protein painting (dye masking, trypsin digestion, MALDI TOF/TOF MS); dyes RBB, CR, AO50 5 mM each in PBS, 15 min at room temperature; complexes pre-incubated 30 min on ice; 5.13 µM CysK alone, 3.33 µM CysK with 5 µM CdiA-CT, 5 µM CysK with 7.5 µM CysE; both purified", "note": "No constants are given. Whether binding was seen depends on the method and setting. Some results given as binding are weak or reduced against the parent protein; the word gives no strength.", "data": [{"binder": "C-terminal region of Contact-dependent growth inhibition A protein (CdiA-CT) toxin (domain or fragment, UniProt Q0T963 3016-3242) VENNALSLVARGCAVAAPCRTKVAEQLLEIGAKAGMAGLAGAAVKDMADRMTSDELEHLITLQMMGNDEITTKYLSSLHDKYGSGAASNPNIGKDLTDAEKVELGGSGSGTGTPPPSENDPKQQNEKTVDKLNQKQESAIKKIDNTIKNALKDHDIIGTLKDMDGKPVPKENGGYWDHMQEMQNTLRGLRNHADTLKNVNNPEAQAAYGRATDAINKIESALKGYGI", "values": [{"measurement": "binding", "value": "binds"}]}]}
